Source: patent US20240294926
Construct, isoform or probe ends are uncertain for at least one entry.

Amino acid sequences for entries named in this document (tags omitted). Residues count along the entry.
UniProt P09874, 2-1014: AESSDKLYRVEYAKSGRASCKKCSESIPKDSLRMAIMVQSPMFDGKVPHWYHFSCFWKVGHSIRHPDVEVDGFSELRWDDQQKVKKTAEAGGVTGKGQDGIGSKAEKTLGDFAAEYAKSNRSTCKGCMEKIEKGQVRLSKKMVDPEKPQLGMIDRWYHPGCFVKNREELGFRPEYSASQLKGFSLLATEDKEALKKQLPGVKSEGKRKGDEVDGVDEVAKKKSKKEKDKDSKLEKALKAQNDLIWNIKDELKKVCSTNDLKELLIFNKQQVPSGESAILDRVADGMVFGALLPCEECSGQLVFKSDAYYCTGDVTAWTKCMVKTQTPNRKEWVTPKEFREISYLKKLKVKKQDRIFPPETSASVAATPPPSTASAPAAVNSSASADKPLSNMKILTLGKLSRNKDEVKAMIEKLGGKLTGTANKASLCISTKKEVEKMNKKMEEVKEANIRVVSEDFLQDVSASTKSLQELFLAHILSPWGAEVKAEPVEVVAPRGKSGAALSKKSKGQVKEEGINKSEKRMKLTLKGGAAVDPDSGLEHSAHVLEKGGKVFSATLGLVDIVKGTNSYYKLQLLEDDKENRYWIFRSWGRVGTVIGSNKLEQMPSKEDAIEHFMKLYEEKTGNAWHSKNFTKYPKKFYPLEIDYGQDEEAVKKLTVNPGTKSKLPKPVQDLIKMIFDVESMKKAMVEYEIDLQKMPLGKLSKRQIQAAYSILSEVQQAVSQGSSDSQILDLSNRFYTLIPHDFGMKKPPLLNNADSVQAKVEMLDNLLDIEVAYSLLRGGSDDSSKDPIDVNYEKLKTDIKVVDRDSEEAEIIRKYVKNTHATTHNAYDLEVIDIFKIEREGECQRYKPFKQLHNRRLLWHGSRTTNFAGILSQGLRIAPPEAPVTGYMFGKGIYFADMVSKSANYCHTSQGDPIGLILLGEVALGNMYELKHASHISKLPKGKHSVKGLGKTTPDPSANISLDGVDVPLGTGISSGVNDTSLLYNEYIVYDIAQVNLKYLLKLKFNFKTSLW

Molecular target: PARP-1 (poly-[ADP-ribose] polymerase 1) (Homo sapiens) (UniProt P09874)
Experiment: SPR
Conditions: FANA (2'-deoxy-2'-fluoroarabino) nucleotides and PS linkages (positions only in images), cholesterol-conjugated, HEG loop, purified recombinant protein, protein details: His-tag, Thermofisher

Sequence “CCCAGCAAACAAGCCT (double strand) [OX413]” has a Kd (first of two listed components, kon 3.7e4 M-1s-1, koff 1.7e-3 s-1, folded or branched DNA) of 45 nM and a Kd (second of two listed components, kon 4.7e3 M-1s-1, koff 3.9e-4 s-1, folded or branched …) of 85 nM.
